# No constants are given. Whether binding was seen depends on the method and setting. Some entries that bind do so weakly or less than the wild type. For part of these data: Sequences can lack the tags named with a protein.
# The chains behind the UniProt entries cited, without tags or fusion partners. Where a name states a change or a piece, a line headed by the entry shows the natural chain unless it says otherwise.
# UniProt P49717: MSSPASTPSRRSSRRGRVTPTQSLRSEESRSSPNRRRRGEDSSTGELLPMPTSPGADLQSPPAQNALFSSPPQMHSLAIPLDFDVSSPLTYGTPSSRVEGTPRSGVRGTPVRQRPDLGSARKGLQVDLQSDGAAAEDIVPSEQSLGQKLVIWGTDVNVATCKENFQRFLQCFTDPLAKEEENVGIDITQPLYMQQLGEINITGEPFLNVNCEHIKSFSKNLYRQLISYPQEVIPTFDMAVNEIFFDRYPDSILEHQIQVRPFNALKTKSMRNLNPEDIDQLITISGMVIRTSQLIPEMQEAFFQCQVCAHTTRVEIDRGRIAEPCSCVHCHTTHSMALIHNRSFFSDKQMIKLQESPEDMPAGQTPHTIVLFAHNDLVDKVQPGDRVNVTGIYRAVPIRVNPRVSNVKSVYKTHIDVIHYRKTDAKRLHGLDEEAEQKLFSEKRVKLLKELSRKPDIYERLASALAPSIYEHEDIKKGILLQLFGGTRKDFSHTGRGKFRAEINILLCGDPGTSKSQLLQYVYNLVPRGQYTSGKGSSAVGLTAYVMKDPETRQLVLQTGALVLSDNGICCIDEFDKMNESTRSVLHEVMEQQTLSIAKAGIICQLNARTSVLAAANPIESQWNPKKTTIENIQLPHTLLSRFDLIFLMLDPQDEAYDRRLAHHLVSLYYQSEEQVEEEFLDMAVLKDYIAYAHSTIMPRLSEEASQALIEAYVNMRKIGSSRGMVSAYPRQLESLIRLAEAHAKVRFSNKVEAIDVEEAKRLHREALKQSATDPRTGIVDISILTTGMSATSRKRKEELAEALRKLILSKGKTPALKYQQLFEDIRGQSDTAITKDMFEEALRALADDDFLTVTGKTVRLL
# UniProt P97311: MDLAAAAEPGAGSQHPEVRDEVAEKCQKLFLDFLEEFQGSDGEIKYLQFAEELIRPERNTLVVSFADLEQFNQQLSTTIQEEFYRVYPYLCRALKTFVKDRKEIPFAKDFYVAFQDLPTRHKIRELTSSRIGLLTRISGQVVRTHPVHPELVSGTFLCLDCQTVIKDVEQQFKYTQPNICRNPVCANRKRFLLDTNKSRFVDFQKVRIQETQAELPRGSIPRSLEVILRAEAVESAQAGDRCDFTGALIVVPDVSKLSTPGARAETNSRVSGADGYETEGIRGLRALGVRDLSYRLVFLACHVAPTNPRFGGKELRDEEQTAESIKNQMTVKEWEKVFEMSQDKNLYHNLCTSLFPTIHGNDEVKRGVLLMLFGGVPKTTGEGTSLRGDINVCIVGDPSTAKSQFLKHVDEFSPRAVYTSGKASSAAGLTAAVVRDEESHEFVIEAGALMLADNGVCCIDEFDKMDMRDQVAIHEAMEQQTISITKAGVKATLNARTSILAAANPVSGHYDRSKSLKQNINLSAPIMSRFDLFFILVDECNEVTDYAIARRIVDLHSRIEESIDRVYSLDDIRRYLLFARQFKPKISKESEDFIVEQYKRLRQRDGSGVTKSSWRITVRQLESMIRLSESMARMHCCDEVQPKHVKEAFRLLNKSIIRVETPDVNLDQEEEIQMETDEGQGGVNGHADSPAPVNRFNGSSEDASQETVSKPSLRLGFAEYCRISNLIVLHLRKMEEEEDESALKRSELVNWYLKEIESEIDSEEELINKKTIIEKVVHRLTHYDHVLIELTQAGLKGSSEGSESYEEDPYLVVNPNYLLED
# UniProt Q61881: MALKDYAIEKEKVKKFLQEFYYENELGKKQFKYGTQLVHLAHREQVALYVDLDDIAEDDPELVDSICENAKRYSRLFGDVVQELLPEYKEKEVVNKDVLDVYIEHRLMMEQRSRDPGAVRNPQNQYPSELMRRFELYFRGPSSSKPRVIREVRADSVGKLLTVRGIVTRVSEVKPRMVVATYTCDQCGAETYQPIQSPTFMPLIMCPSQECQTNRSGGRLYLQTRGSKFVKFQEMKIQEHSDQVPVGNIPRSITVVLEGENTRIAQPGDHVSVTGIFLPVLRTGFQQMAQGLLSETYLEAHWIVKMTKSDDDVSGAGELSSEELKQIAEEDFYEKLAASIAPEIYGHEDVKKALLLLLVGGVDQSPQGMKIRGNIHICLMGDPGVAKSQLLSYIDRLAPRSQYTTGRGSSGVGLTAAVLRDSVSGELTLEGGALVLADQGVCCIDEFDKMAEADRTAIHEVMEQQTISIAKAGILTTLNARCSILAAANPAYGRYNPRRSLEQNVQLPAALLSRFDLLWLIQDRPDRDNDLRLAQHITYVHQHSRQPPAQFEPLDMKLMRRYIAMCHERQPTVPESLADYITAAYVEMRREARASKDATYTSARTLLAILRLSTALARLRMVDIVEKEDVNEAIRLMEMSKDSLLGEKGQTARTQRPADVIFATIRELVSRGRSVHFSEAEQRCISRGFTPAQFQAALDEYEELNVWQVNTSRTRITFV
# UniProt Q9BRT9: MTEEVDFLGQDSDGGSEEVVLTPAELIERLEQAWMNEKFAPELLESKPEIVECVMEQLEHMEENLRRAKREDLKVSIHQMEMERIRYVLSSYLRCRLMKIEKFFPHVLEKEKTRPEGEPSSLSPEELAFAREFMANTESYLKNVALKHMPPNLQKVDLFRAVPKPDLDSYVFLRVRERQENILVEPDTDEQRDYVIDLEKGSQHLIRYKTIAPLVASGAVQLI
# UniProt P97310: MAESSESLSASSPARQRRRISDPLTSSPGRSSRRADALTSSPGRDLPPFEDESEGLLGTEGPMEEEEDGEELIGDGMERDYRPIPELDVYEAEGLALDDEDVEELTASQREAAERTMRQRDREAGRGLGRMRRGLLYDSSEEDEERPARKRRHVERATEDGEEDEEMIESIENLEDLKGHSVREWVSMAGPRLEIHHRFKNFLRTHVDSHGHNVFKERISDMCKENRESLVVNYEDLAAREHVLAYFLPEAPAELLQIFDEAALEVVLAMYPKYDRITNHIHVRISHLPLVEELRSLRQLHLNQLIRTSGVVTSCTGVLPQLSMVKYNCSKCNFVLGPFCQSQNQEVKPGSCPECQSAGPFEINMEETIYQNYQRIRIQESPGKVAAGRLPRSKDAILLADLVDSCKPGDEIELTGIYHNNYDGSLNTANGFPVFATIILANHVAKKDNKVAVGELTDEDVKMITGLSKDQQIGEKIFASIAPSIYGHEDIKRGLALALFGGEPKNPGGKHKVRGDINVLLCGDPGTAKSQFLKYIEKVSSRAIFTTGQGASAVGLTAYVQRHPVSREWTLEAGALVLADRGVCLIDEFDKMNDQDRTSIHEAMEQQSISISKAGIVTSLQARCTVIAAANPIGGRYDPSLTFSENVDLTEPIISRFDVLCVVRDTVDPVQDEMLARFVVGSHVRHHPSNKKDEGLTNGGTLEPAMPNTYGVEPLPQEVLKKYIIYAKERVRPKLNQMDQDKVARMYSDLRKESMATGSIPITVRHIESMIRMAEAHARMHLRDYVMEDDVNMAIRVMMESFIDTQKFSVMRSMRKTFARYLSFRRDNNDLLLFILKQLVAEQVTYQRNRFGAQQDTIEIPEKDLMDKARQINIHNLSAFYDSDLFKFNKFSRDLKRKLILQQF
# What was measured:
# [1] = molecular target: mouse Mcm4/6/7 complex (His6-Mcm4, Mcm6, Mcm7-Flag) (mouse) (UniProt P49717+P97311+Q61881); experiment: native gel or EMSA; gel shift on 32P-labelled single-stranded oligonucleotide (132 mer or 37mer-dT50), 0.5 mM ATP-γ-S, 30°C 30 min; 5% native polyacrylamide gels (1x TBE, or 0.5x TBE with 5% glycerol); complexes of the two proteins on DNA; both purified
# [2] = molecular target: T1, mouse Mcm5-His6-Flag (mouse) (UniProt P49718); experiment: co-purification; six mouse Mcm subunits co-expressed in insect cells; nickel-agarose, anti-Flag M2 antibody agarose (Flag on Mcm5), glycerol gradient sedimentation
# T1 sequence: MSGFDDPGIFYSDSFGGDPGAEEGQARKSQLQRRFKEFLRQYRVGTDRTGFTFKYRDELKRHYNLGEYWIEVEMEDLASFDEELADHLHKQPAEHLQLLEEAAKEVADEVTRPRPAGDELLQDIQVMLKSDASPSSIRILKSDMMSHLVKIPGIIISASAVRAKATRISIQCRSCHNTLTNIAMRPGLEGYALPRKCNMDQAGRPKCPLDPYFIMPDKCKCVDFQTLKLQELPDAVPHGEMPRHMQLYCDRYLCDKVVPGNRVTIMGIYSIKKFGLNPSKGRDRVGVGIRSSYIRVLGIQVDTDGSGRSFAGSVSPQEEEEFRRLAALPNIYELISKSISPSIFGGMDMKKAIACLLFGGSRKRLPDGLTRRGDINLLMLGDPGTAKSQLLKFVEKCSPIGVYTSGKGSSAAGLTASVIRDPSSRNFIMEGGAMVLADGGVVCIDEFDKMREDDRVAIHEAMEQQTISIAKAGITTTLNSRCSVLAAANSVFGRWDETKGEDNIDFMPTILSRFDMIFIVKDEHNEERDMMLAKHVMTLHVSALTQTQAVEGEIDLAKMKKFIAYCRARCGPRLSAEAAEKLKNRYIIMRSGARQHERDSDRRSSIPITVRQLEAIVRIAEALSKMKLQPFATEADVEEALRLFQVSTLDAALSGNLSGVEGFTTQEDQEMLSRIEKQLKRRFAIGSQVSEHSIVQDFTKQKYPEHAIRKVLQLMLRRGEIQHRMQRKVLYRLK
binding [2],Substance,binding [1]
,"human GINS complex (Sld5, Psf1, Psf2, Psf3) (from UniProt Q9BRT9 1-223; Q14691 1-196; Q9Y248 1-185; Q9BRX5 1-216)",no binding (tested: 30 to 500 ng of GINS (25 nM to 400 nM))
binds,mouse Mcm2 (from UniProt P97310 1-904),
binds,mouse Mcm7-His6 (from UniProt Q61881 1-719),
